pIC50: −log10 of the molar value.
Test system: Hela cells
Assay: HeLa cell viability, MTT assay
Type: cell-based, Human
Details: 48 hours exposure, total Pt concentration
Experimental: The cells were exposed to solutions of Pt-BASP or free cisplatin with varied total Pt concentration for 48 hours. […] Addition of ligands to the PEG periphery that induce internalization may lead to even greater efficacy.
Human Hela cell line was cultured at 37° C. under a humidified atmosphere of 5% CO2. The cells were grown in the final medium (FMEM) consist of 89% Eagle's minimum essential medium (EMEM, ATCC, 30-2003), 10% fetal bovine serum (Gibco, 10437028) and 1% antibiotics (100 U/mL penicillin and 100 μg/mL streptomycin, Gibco. 105140122). The cells were continuously maintained in the culture medium and subcultured every 3-4 days.
Hela cells were seeded at 10.000 cells/well in a 96-well plate and allowed to attach for 20 h before drug treatment. Prior to drug exposure, the culture medium was removed. Then, fresh media with drug concentrations ranging from 0 to 400 μM (based on dry weight of polymer dissolved in FMEM) were added to the appropriate wells. The cells were subsequently incubated in a cell culture incubator for 48 h. The medium was removed before fresh drug-free medium was added to each well. The cells were incubated for another 24 h before analysis by the MTT cell proliferation assay (ATCC, 30-1010K). Cells were incubated with fresh medium containing MTT reagent for 4 h at 37° C. […] Absorbance at 550 nm was measured on a Safire II (Tecan) plate reader. […]

Structure (SMILES): N.N.[Cl][Pt][Cl] [cisplatin]
- pIC50: 4.64
